PubChem BioAssay AID1259308 – NCATS – 2017
This is an unselected part of about 59,000 reagents tested. Over the whole deposit, about 1,510 (2.6%) are marked active. 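Calls use total luciferase alone and ignore viability, so some active siRNAs may act by altering cell number.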 The numbers tell different reagents against one gene apart. Further read-outs or replicates are left out here. No sequences are given here.

- Test: 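Knock-downs that increase output of a recombinant reporter protein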 (primary screen)
- Cells: human HEK293 embryonic kidney cells stably expressing firefly luciferase (HEK-CMV-Luc2-Hygro)
- Knock-down reagent: single siRNA against human genes, 0.8 pmol siRNA per well
- Timing: 72 h
- Measurement: 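Reporter luminescence and viable-cell signal on separate replicate plates, given as percent of non-targeting control and median/MAD z-scores, plus per-cell luciferase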
- Reading the numbers: total luciferase, z-score: higher = more reporter protein produced
- Hit rule: 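An siRNA counts as active if its total luciferase robust z-score exceeds 3; genes with two or more such siRNAs out of three were retested with fresh siRNAs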
- Meaning of the calls: active = raised luciferase; inactive = no rise

The first 2 records, to show the layout:
RRM1 (GeneID 6240) #1 — total luciferase, z-score = -0.52; outcome = inactive
RRM1 (GeneID 6240) #2 — total luciferase, z-score = 0.147; outcome = inactive

The list itself, repeating the preview:
RRM1 (GeneID 6240) #1 — total luciferase, z-score = -0.52; outcome = inactive
RRM1 (GeneID 6240) #2 — total luciferase, z-score = 0.147; outcome = inactive
RRM1 (GeneID 6240) #3 — total luciferase, z-score = -1.42; outcome = inactive
PLA2G1B (GeneID 5319) #1 — total luciferase, z-score = -0.246; outcome = inactive
PLA2G1B (GeneID 5319) #2 — total luciferase, z-score = 1.86; outcome = inactive
PLA2G1B (GeneID 5319) #3 — total luciferase, z-score = -0.43; outcome = inactive
IPO4 (GeneID 79711) #1 — total luciferase, z-score = 1.37; outcome = inactive
IPO4 (GeneID 79711) #2 — total luciferase, z-score = 0.36; outcome = inactive
IPO4 (GeneID 79711) #3 — total luciferase, z-score = 1.3; outcome = inactive
MTRF1 (GeneID 9617) #1 — total luciferase, z-score = -0.953; outcome = inactive
MTRF1 (GeneID 9617) #2 — total luciferase, z-score = -0.776; outcome = inactive
MTRF1 (GeneID 9617) #3 — total luciferase, z-score = 0.678; outcome = inactive
HKDC1 (GeneID 80201) #1 — total luciferase, z-score = -1.08; outcome = inactive
HKDC1 (GeneID 80201) #2 — total luciferase, z-score = -0.485; outcome = inactive
HKDC1 (GeneID 80201) #3 — total luciferase, z-score = -1.49; outcome = inactive
DEK (GeneID 7913) #1 — total luciferase, z-score = -0.124; outcome = inactive
DEK (GeneID 7913) #2 — total luciferase, z-score = -0.824; outcome = inactive
DEK (GeneID 7913) #3 — total luciferase, z-score = 0.208; outcome = inactive
PYGO2 (GeneID 90780) #1 — total luciferase, z-score = -2.55; outcome = inactive
PYGO2 (GeneID 90780) #2 — total luciferase, z-score = 1.26; outcome = inactive
PYGO2 (GeneID 90780) #3 — total luciferase, z-score = 0.85; outcome = inactive
